42 sequences from PMC7819943, “Rice protein-binding microarrays: a tool to detect cis-acting elements near promoter regions in rice” can be followed below.

Some of the results follow.

The assay has as its target T1, OsSMF1 (Oryza sativa, UniProt Q6ZLB0 1-436).
T1 sequence: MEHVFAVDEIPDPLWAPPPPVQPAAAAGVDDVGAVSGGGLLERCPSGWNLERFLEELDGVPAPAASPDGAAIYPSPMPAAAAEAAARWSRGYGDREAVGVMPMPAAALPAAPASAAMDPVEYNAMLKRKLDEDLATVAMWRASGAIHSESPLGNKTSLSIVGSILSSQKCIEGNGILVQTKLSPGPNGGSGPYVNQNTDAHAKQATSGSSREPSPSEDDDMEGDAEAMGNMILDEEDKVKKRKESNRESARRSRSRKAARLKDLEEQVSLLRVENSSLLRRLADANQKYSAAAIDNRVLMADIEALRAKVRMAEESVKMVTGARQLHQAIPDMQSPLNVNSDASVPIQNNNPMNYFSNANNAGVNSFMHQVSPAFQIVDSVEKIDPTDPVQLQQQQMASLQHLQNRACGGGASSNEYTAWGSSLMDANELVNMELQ
As to the kind of experiment: protein-binding microarray (RPBM); PBS, 2% BSA, 51.3 ng/ul salmon testes DNA, 50 uM zinc acetate, 200 nM TF, 25 C, 1 h; high values mean tight binding. The following applies: protein: recombinant; tags: N-terminal polyhistidine and DsRed monomer fusion (pET32a); chain copies: 2; label: CyDye5-dUTP incorporated in the synthesized complementary strand; 3' TTTTT single-stranded linker to array surface; dsDNA, one strand shown. The gist of the method: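 Using Ni–NTA, transcription factors fused N-terminally to polyhistidine and DsRed were purified after expression in E. coli BL21-CodonPlus. These were incubated at 200 nM with a blocked, double-stranded custom Agilent array for 1 h at 25 °C in a buffer containing 50 µM zinc acetate, and the array was washed. The binding signal is per-feature fluorescence intensity (arbitrary units) on an Axon 4000B scanner.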
Turning to “ATAATGTGACGCTGCCATACACCGCCTCCCTTCGCTTTTGCGGAGTCACCTAGTGCAG”, the binding signal was 4250 fluorescence intensity (a.u.).
In the case of “ACCAACCAACCAACCAACCAACCAAGCCTCCCAACTCCATCGGAGTCACCTAGTGCAG”, the binding signal is 3810 fluorescence intensity (a.u.).
The value for “CGAACTTCGAACGGCGTGAAACCATACGTCATACCTATTTCGGAGTCACCTAGTGCAG” was 6370 fluorescence intensity (a.u.); that for “ACACAACTAATCCACACAAGGAGCATGACTGTTACCGACCCGGAGTCACCTAGTGCAG” was 3640 fluorescence intensity (a.u.).
Regarding “ACGACATCAACTTCGCGTCGCGGCCGTGGCCGCCGACTGTCGGAGTCACCTAGTGCAG”, the binding signal is 3400 fluorescence intensity (a.u.).
The value for “CATATACTGCATACGTCAAGTCAGAGGAACGTGGTGGCTGCGGAGTCACCTAGTGCAG” was 5590 fluorescence intensity (a.u.); that for “ATAGAATCTTGCTATACGTATGACCGAGCCATTCGACTCACGGAGTCACCTAGTGCAG” was 3880 fluorescence intensity (a.u.); that for “AAGAAGGAAATGATGCGCGCGCACAACGTGGCCACCTCCTCGGAGTCACCTAGTGCAG” was 4910 fluorescence intensity (a.u.).
The value for “GGTTGCGAAGGAAAAGGGATGGCGATTGATTTGCGCGTGGCGGAGTCACCTAGTGCAG” was 3150 fluorescence intensity (a.u.); that for “CCGAAAGTACTTATAAAGAGACATGTTCCTCAAACAAGGCCGGAGTCACCTAGTGCAG” was 26000 fluorescence intensity (a.u.).
The result for “CGTCTCCAAGCTCCGGACCCAGCTGGGCGTCATCCACCCGCGGAGTCACCTAGTGCAG” reads 3330 fluorescence intensity (a.u.); that for “AATATCACACTGCCCGCGCCCCTGTTCGCAGCGCATGTGACGGAGTCACCTAGTGCAG”, 3160 fluorescence intensity (a.u.); that for “CGGTGTCGTCGTTCAGACGCGACACGTATAGTGAACCCTCCGGAGTCACCTAGTGCAG”, 3840 fluorescence intensity (a.u.).
As for “GGAATCCAGTGCAACTGTGGCAGTTGGATCACCCCAGCCTCGGAGTCACCTAGTGCAG”, the binding signal is 38900 fluorescence intensity (a.u.).
The value for “AAGCCCTAGTCCCCGCCACGCCACCGTCCGCCGGCAACGCCGGAGTCACCTAGTGCAG” was 7780 fluorescence intensity (a.u.).
With “GCAATTTCTAATTGTATTATATGACAGTTTTAGTGGAAATCGGAGTCACCTAGTGCAG”, the binding signal is 28800 fluorescence intensity (a.u.).
On to “GCCGATCGATCAATCGCCGCCGCCGTCTCCTCGTGTAACCCGGAGTCACCTAGTGCAG”, for which the binding signal was 3430 fluorescence intensity (a.u.).
The value for “ATATAATGTGTGTGCATCTACTTTGTGTTGCTGACTAACGCGGAGTCACCTAGTGCAG” was 4990 fluorescence intensity (a.u.).
The result for “ATATGTATGTGTTGTAAACTTTCATTGGATTTGTGAAGTTCGGAGTCACCTAGTGCAG” reads 3200 fluorescence intensity (a.u.); that for “CTGCACCTGCTTGATCTCTTCTATGTCACTGTTCCTCTGACGGAGTCACCTAGTGCAG”, 3220 fluorescence intensity (a.u.).
Consider “ACTCGCCCCTTGCGGCATCGCCTCCTCCCCGCCACACAAACGGAGTCACCTAGTGCAG”, for which the binding signal is 3720 fluorescence intensity (a.u.).
On to “CAAATGTGTGTCTATATATCCGATGTGACAACCAAACCTACGGAGTCACCTAGTGCAG”, for which the binding signal was 3320 fluorescence intensity (a.u.).
The value for “GCCCAATCCACGTTGCCGTCGAGGTCGATGCCGCCGCTCGCGGAGTCACCTAGTGCAG” was 4360 fluorescence intensity (a.u.).
The result for “AGAAAGCACCACGACGACAAACGGCCCCAGTGAGCGAGTGCGGAGTCACCTAGTGCAG” reads 3520 fluorescence intensity (a.u.); that for “CCGCTTCGCTCCGTTGGAAGCTAGACTTTATACGTGTGCACGGAGTCACCTAGTGCAG”, 3340 fluorescence intensity (a.u.); that for “GCATGATGTATGATGAGCTCTACACGAAAGCCAAAGTGATCGGAGTCACCTAGTGCAG”, 3170 fluorescence intensity (a.u.).
For “GCATCTCCTTACTTGACGTAATGTCAGAGCGCTAGCAAACCGGAGTCACCTAGTGCAG”, the binding signal was 4980 fluorescence intensity (a.u.).
The value for “TTTAATTATATTATCACTGACATGTGGGTCCCACTATATGCGGAGTCACCTAGTGCAG” was 4330 fluorescence intensity (a.u.); that for “CTCTTAATCGCAGCCTTCACTTTCGTCGTGACGAGTCACGCGGAGTCACCTAGTGCAG” was 4540 fluorescence intensity (a.u.).
Consider “TAGATTACATAAAGATAGTGACTGTTGCAATGTTGTCTGTCGGAGTCACCTAGTGCAG”, for which the binding signal was 4230 fluorescence intensity (a.u.).
The result for “TCGGGCCCATAGGAGGGTCGTGGCGTGGCGTGCCCAGGTGCGGAGTCACCTAGTGCAG” reads 4100 fluorescence intensity (a.u.); that for “GCACATCGATCGAGTCAGCTGATCACTCACACTGCGGACTCGGAGTCACCTAGTGCAG”, 4170 fluorescence intensity (a.u.); that for “ATTCGTTTGGTGTGGTATTATCCGTATGTGGAAGTTGTTACGGAGTCACCTAGTGCAG”, 3620 fluorescence intensity (a.u.).
Turning to “TTAATCACACGTTTATGAATCACTTAATCATATTCATCATCGGAGTCACCTAGTGCAG”, the binding signal is 4020 fluorescence intensity (a.u.).
The result for “GCAGATCTAGCTACACTAGCCGCCCTATTTCAGGTCTCCACGGAGTCACCTAGTGCAG” reads 3480 fluorescence intensity (a.u.).
The value for “TACTATTCTGTGGATGAGTCAGATGAAGATGAGGTGCCTTCGGAGTCACCTAGTGCAG” was 5110 fluorescence intensity (a.u.).
Consider “CGATAATGACACGGAATTATCTTACTAAGCCCGGATTAATCGGAGTCACCTAGTGCAG”, for which the binding signal is 3290 fluorescence intensity (a.u.).
The result for “GCACATATCAGGTATGACATCATCAATGGAAGTCCAACAGCGGAGTCACCTAGTGCAG” reads 10700 fluorescence intensity (a.u.).
Regarding “CAGGTGAGGAGGAAGTCGCCGCCGCGGTCCCGGTCGCGGGCGGAGTCACCTAGTGCAG”, the binding signal was 31600 fluorescence intensity (a.u.).
As to “TACTGCCAATTGACACGTTCCAACTCTAGCTTCTTTCCTGCGGAGTCACCTAGTGCAG”, the binding signal is 27600 fluorescence intensity (a.u.).
The result for “TGCAGCCCACCTATGAGTAAGCAAAAGTGTGCGGCCCTCCCGGAGTCACCTAGTGCAG” reads 4440 fluorescence intensity (a.u.); that for “GTGCATGGCTTACGTGCGGTGCACTACCACGGCGGCAGCCCGGAGTCACCTAGTGCAG”, 4050 fluorescence intensity (a.u.).
